doi:10.1101/2023.10.18.562906
Like-named read-outs stand apart in the source and are kept apart here. Results are given in words; binding and its absence hold for the method and conditions named. Binding seen in cells or lysates may run through a third protein. Here binding means that the protein was enriched with, or labelled near, the bait; the list need not be complete. For part of these data: No binding means not detected with the bait. Blank lines part the entries; values can stand above or below the molecule they belong to.

Chains of the proteins cited; added tags and fusions are not shown.
UniProt Q8IWT3: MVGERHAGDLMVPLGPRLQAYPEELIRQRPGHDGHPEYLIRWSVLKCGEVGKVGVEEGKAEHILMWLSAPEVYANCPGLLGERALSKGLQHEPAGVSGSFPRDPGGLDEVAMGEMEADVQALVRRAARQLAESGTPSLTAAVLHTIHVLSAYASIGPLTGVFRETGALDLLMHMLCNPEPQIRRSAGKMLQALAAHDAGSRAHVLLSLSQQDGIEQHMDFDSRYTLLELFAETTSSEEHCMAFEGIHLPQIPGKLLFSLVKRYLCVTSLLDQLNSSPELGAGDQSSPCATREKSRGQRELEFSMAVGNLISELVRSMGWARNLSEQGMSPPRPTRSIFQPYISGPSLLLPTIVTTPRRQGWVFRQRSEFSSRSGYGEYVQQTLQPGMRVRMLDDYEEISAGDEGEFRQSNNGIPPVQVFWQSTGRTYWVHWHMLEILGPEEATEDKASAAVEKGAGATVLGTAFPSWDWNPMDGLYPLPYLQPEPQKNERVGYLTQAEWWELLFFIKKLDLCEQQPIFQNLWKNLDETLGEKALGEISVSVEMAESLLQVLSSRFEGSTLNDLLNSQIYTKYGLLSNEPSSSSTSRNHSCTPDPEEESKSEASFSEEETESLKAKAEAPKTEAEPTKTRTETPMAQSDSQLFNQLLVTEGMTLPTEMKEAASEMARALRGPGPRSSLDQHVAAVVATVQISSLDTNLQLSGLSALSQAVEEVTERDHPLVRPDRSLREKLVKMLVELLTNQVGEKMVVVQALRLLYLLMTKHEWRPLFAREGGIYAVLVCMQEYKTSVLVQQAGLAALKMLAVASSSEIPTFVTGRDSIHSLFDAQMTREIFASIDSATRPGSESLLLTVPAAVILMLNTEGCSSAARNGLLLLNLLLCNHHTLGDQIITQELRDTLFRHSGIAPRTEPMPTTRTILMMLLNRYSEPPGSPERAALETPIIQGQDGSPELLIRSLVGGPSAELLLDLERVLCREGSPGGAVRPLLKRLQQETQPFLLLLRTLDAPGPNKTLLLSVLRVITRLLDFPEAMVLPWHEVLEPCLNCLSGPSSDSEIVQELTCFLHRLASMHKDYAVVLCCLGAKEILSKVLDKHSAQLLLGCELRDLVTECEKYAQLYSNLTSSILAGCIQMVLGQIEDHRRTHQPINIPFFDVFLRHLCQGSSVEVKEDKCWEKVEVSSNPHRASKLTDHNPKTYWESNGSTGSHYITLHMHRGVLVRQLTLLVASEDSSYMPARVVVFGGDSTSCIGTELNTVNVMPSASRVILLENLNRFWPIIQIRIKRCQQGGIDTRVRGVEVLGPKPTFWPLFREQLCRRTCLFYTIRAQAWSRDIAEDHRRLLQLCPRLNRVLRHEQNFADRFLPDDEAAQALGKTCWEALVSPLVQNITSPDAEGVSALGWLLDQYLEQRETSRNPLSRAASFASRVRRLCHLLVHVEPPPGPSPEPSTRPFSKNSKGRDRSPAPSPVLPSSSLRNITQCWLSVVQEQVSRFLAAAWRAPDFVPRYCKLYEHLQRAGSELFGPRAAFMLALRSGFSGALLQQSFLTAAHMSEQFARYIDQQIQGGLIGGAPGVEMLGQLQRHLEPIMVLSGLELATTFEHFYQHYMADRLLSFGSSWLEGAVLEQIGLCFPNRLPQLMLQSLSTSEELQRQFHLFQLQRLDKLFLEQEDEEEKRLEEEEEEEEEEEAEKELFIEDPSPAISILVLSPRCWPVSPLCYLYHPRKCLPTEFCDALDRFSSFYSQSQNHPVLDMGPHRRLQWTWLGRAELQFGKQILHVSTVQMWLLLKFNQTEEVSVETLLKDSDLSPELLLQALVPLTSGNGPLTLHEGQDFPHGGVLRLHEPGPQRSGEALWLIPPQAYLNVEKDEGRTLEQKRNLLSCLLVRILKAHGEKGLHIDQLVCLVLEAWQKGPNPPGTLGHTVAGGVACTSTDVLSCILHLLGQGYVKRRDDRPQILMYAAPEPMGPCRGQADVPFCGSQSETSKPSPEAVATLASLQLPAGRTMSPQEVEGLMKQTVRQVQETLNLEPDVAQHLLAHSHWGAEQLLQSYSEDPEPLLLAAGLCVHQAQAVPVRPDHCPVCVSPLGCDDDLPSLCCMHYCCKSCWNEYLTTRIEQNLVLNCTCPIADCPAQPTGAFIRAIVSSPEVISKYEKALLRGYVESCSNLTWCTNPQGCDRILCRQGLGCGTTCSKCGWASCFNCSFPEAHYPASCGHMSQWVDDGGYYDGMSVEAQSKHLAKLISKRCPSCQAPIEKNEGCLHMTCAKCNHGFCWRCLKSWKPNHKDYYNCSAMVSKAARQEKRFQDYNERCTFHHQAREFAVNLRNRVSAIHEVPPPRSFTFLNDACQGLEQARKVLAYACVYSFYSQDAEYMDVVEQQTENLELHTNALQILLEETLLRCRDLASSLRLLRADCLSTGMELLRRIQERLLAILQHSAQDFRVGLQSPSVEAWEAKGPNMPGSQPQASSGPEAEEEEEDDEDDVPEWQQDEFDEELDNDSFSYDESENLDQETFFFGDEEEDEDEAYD
UniProt O43791: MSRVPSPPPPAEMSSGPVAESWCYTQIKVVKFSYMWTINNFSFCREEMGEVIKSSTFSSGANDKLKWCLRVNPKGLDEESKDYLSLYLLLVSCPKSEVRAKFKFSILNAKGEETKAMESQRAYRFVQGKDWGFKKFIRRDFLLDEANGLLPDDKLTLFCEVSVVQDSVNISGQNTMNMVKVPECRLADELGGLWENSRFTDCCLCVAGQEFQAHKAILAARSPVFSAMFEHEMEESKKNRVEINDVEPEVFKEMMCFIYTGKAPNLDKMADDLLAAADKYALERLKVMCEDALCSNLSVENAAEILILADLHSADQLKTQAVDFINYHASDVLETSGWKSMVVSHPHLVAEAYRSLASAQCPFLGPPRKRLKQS
UniProt Q12923: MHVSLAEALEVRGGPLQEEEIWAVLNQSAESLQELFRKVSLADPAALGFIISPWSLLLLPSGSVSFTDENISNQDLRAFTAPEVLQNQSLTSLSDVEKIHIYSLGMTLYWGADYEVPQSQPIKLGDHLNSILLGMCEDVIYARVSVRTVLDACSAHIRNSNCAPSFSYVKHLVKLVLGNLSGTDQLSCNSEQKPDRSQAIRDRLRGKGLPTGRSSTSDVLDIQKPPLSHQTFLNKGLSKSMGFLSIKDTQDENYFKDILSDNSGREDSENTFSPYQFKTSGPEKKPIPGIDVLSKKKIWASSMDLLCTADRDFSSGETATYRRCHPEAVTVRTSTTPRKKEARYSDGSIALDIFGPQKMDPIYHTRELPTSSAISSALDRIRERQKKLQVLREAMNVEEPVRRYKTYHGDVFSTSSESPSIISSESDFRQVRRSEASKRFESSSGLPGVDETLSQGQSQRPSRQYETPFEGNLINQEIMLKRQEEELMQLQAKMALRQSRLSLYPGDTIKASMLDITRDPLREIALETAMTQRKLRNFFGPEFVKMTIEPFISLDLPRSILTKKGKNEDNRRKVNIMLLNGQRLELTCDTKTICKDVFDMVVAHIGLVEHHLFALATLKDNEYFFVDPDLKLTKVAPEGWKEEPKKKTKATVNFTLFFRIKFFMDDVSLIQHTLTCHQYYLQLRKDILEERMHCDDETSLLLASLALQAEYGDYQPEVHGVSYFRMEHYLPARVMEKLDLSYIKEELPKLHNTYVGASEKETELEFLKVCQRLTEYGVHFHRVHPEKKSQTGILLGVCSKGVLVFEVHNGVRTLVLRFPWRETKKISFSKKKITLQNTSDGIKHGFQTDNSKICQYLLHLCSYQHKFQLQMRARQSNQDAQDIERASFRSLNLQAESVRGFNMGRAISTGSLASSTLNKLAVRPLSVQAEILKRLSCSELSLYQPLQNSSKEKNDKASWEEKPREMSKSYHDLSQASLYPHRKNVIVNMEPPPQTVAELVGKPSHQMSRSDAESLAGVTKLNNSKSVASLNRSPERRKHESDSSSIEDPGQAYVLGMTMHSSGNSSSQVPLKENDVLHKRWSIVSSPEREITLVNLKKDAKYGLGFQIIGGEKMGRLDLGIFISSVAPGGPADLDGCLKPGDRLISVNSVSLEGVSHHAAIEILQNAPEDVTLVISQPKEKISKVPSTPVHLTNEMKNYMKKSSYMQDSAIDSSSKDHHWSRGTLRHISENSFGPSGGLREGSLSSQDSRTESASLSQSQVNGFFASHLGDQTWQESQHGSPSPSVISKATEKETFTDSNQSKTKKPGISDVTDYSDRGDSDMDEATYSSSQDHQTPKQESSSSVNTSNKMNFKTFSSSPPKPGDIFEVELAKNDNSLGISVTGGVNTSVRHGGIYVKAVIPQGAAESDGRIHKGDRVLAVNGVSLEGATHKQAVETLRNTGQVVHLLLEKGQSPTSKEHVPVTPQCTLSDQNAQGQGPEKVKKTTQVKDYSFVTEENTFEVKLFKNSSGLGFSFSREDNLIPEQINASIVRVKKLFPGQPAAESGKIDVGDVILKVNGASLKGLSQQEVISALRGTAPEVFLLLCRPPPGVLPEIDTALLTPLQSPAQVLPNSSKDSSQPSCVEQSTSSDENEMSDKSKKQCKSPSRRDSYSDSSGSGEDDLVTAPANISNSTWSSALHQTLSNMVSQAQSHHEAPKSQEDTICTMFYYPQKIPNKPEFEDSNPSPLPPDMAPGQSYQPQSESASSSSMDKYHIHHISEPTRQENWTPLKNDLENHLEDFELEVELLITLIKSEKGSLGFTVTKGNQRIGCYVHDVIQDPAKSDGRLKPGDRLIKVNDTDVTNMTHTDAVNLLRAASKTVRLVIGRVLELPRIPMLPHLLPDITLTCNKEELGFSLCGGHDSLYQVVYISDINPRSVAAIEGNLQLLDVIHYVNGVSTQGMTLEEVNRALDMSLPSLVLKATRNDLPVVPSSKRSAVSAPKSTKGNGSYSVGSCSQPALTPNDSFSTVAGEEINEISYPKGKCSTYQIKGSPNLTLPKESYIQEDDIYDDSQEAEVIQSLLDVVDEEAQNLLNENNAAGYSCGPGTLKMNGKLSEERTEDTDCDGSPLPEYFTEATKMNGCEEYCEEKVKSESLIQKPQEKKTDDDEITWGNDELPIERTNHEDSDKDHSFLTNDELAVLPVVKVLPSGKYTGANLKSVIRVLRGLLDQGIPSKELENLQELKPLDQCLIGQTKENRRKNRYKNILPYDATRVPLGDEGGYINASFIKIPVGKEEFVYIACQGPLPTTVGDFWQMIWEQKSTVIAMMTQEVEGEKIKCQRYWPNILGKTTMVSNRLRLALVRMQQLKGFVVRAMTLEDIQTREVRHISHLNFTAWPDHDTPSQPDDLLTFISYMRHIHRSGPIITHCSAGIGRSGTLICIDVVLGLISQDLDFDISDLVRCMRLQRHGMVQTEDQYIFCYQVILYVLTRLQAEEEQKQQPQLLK
UniProt P07947: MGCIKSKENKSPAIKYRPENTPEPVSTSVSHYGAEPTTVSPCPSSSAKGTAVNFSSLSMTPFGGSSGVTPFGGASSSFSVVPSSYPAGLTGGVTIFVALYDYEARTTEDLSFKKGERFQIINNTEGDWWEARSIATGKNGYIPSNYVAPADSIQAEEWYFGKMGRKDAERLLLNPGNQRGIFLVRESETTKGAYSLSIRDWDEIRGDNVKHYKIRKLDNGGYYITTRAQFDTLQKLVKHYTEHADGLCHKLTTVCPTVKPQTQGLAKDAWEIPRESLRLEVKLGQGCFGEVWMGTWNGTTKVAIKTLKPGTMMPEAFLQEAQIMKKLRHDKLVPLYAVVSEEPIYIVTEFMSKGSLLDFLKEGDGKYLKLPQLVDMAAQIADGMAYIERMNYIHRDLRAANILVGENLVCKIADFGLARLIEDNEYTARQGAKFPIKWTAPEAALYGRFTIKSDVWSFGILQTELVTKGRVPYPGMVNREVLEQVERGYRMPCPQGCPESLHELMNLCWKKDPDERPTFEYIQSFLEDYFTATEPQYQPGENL
UniProt Q96CV9: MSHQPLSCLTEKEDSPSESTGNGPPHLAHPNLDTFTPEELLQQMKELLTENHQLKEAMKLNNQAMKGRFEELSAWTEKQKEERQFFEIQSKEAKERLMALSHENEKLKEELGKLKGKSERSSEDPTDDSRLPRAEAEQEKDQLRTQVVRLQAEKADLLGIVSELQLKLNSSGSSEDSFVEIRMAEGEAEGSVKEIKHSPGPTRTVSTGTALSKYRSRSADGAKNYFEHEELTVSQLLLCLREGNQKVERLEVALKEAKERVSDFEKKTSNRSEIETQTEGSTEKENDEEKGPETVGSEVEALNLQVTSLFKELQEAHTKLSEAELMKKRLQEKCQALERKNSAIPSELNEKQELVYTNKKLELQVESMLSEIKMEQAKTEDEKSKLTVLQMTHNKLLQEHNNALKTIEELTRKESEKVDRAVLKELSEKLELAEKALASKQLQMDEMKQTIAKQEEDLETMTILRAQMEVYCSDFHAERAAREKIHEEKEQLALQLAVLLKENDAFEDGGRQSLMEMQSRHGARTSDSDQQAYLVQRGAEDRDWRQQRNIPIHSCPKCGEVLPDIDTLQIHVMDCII

Tests used:
[1] = biological target: Cul9 (bait of the Cul9-complex analysed by MS/MS) (UniProt Q8IWT3); assay: affinity purification with mass spectrometry
[2] = biological target: Cul9 (bait of the proximity-dependent biotin (BioID2) experiment) (UniProt Q8IWT3); assay: proximity labelling
[3] = biological target: Cul9 (bait of the proximity-dependent biotin (BioID2) experiment) (UniProt Q8IWT3); assay: proximity labelling; remark: listed apart in the source

Molecule: SPOP (from UniProt O43791 1-374)
binding [1]: binds

Molecule: tyrosine phosphatase PTPN13 (from UniProt Q12923 1-2485) (enzyme)
binding [1]: binds

Molecule: Yes1 (found in the BioID2 experiment) (from UniProt P07947 1-543) (enzyme)
binding [2]: binds

B1: NDP52 (protein, UniProt Q13137 1-446)
chain: MEETIKDPPTSAVLLDHCHFSQVIFNSVEKFYIPGGDVTCHYTFTQHFIPRRKDWIGIFRVGWKTTREYYTFMWVTLPIDLNNKSAKQQEVQFKAYYLPKDDEYYQFCYVDEDGVVRGASIPFQFRPENEEDILVVTTQGEVEEIEQHNKELCKENQELKDSCISLQKQNSDMQAELQKKQEELETLQSINKKLELKVKEQKDYWETELLQLKEQNQKMSSENEKMGIRVDQLQAQLSTQEKEMEKLVQGDQDKTEQLEQLKKENDHLFLSLTEQRKDQKKLEQTVEQMKQNETTAMKKQQELMDENFDLSKRLSENEIICNALQRQKERLEGENDLLKRENSRLLSYMGLDFNSLPYQVPTSDEGGARQNPGLAYGNPYSGIQESSSPSPLSIKKCPICKADDICDHTLEQQQMQPLCFNCPICDKIFPATEKQIFEDHVFCHSL
binding [3]: no binding

Other lines, results leading:

binding [2]: binds
Molecule: p62 (found in the BioID2 experiment) (from UniProt Q13501 1-440)

binding [2]: no binding
Molecule: OPTN (from UniProt Q96CV9 1-577)
